# The list shows a part of the results. Further columns of the screen follow, without active or inactive calls. The list favours compounds with an active or inconclusive main result.
# Experiment: hepatocyte lipid droplet accumulation inhibitors, confirmation, imaging, AML12 mouse hepatocytes, single concentration, high-content (AID 463183);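 note: cells counted after overnight compound exposure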
# Conditions: BODIPY lipid droplet imaging, measured here: cell count, cytotoxicity, at 5.2 µM, droplets induced with 100 µM oleic acid
row,Structure (SMILES),cell count [cells]
1,Cc1cccc(NC(=O)CSc2nc3ccccc3nc2N2CCCC2)c1,1490
2,COCCN1C(=O)/C(=C/c2ccc(N3CCCC3)cc2C)SC1=S,1600
3,COc1ccc(C)cc1NC(=O)CCNS(=O)(=O)c1cccc(C(F)(F)F)c1,1530
4,COc1ccc(-n2c(=O)c3c4c(sc3n(CC(=O)Nc3cc(C)[nH]n3)c2=O)CCC4)c(OC)c1,1590
5,Cn1nc(C(F)(F)F)c(-c2cccc(C(F)(F)F)c2)c1NC(=O)Nc1ccc(F)cc1,1630
6,COc1cccc(-c2nc(NCc3ccccc3)c3ccccc3n2)c1O,1620
7,COc1ccc(OC)c(CNC(=O)CCCc2cn(C)c3ccccc23)c1,1490
8,CCCn1nc2cc(C(=O)NCc3ccc(OC(F)(F)F)cc3)ccc2c1OCC,1590
9,COc1cc(/C=C\C(=O)OCn2nnc3ccccc3c2=O)cc(OC)c1OC,1670
10,CCOC(=O)c1cc(-c2ccc(C)cc2)nc2nc(SC)[nH]c(=O)c12,1600
11,CCOc1ccc(CCNC(=O)COC(=O)c2cc(OC)c(OC)c(OC)c2)cc1OCC,1670
12,Cc1[nH]n(-c2ccccc2)c(=O)c1N=Nc1ccc(Cl)cc1,1430
13,FC(F)Oc1ccc(-c2csc(NNC3=NCCCCC3)n2)cc1,1540
14,COc1ccc(S(=O)(=O)N(c2onc(C)c2Cl)S(=O)(=O)c2ccc(OC)cc2)cc1,1620
15,Cc1c(Cl)sn(-c2ccc(Cl)cc2)c1=O,1060
16,CCN1C(=O)/C(=C2\C=Cc3cc(C)ccc3N2CC)OC1=S,1670
17,CCOc1ccc(-c2csc(NNC3=NCCCCC3)n2)cc1,1630
18,CCC(Sc1nc2ccsc2c(=O)n1-c1ccc(Cl)c(C)c1)C(=O)NCc1ccco1 (centres undefined),1690
19,CCOc1ccc(CCNC(=O)c2cc3sc(Cl)cc3n2C)cc1OCC,1550
20,C#CC(=O)N(c1ccc(OC)c(OC)c1)C(C(=O)NC1CCCC1)c1cccs1 (centres undefined),7.5

row,Structure (SMILES),cell count [cells]
1,Cc1ccc(-n2nc3c(=O)n(C(C)C(=O)NCCc4cccs4)nc(C)c3c2C)cc1 (centres undefined),1580
2,COc1cccc(/C=C/C(=O)NCCc2ccc(OC)c(OC)c2)c1,1600
3,CN1C(=O)[C@H]2[C@@H](C3CC3)N3C(=O)CN(Cc4ccccn4)C(=O)[C@@]3(Cc3ccccc3)[C@H]2C1=O,1540
4,COc1ccc(OC)c(NC(=O)c2cc3oc4ccccc4c3cc2O)c1,1580
5,CC(NC(=O)[C@@H](C)NC(=O)[C@@H]1Cc2ccccc2CN1C(=O)OC(C)(C)C)c1ccccc1 (some centres undefined),1610
6,COc1c(C)cc(Br)cc1C(=O)Nc1cccc(NC(=O)c2ccco2)c1,1640
7,CCOc1ccc(C(=O)OCC(=O)Nc2nc(OC)cc(OC)n2)cc1OCC,1650
8,COc1cc2ncnc(NCc3ccc(Cl)cc3)c2cc1OC,920
9,CCc1ccccc1NC(=O)C1=CC(c2cccs2)=NS(=O)(=O)N1C,1680
10,Cc1cc(N2CCOCC2)n2nc(C)c(-c3ccccc3Cl)c2n1,1640
11,CN(C)S(=O)(=O)c1cccc(NC(=O)CC23CC4CC(CC(C4)C2)C3)c1,1540
12,CCN(CCn1cccn1)C(=O)c1cc(COc2ccc(F)cc2Cl)on1,1630
13,Cc1ccc(CNC(=O)c2ccc(N3CCC4(CC3)CC(c3ccccc3)=NO4)c(NC(=O)c3ccc(Br)cc3)c2)cc1,1600
14,CCOC(=O)c1ccc(N2CCN(c3ccccc3F)CC2)c(NC(=O)Nc2ccccc2)c1,1600
15,CC(=O)OCC(=O)[C@@]1(O)CC[C@H]2[C@@H]3CCC4=CC(=O)CC[C@]4(C)[C@H]3[C@@H](O)C[C@@]21C,1600
16,Cc1ccc(CNC(=O)c2ccc3nc4[nH]c5ccccc5c4nc3c2)cc1,1640
17,COC(=O)c1ccc(NS(=O)(=O)c2ccc3c(c2)n(C)c(=O)n3C)cc1,1520
18,CCn1cc(CCCC(=O)NCc2cccc(OC)c2)c2ccccc21,1640
19,COc1ccccc1/C=C/C(=O)NCC(=O)N/N=C/c1cc(Br)ccc1OC,1590

# 3 neighbouring compounds from above:
row,Structure (SMILES),cell count [cells]
20,C#CC(=O)N(c1ccc(OC)c(OC)c1)C(C(=O)NC1CCCC1)c1cccs1 (centres undefined),7.5
1,Cc1ccc(-n2nc3c(=O)n(C(C)C(=O)NCCc4cccs4)nc(C)c3c2C)cc1 (centres undefined),1580
2,COc1cccc(/C=C/C(=O)NCCc2ccc(OC)c(OC)c2)c1,1600

# Source: PubChem BioAssay AID463183 (Sanford-Burnham Center for Chemical Genomics, 2010)
